PubChem BioAssay AID504804 – Drosophila RNAi Screening Center, 2011
In all, the deposit lists about 19,000 reagents; below is a random part of those with a known target gene and a result. In the full data, 47 (0.25%) got an active call. 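Signals are raw, not normalised; exact z-scores behind calls not deposited; actives needed confirmation, so some wells reaching 2 SD are inactive.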 A number with no mark means an inactive call. No sequences are given here.

- Test: 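Knock-downs shielding fly cells from apoptosis caused by DNA damage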 (primary screen)
- System: Drosophila Kc cells
- Reagents: long dsRNA against Drosophila genes, 0.5 µg dsRNA per well
- Timing: 96 h (48 h knock-down, then 48 h drug)
- Challenge: doxorubicin 5 µg/ml for 48 h, added 48 h after dsRNA
- Measured: 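Viability measured as cellular ATP by luminescence after 48 h knock-down then 48 h doxorubicin at 5 µg/ml; unnormalised plate counts for each replicate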
- Reading the numbers: raw ATP luminescence: higher = more viable cells, protection from doxorubicin
- Call rule: 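Active when both duplicate wells lie at least 2 SD above the plate mean and protection is confirmed by rescreening and independent dsRNAs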

The opening 3 records as a preview:
{"Gene": "Xbp1", "amplicon": "DRSC04553", "raw ATP luminescence, replicate 1": 2.06e5, "raw ATP luminescence, replicate 2": 2.23e5}
{"Gene": "bumpel", "amplicon": "DRSC16100", "raw ATP luminescence, replicate 1": 55180, "raw ATP luminescence, replicate 2": 58330}
{"Gene": "CG17283", "amplicon": "DRSC15219", "raw ATP luminescence, replicate 1": 59360, "raw ATP luminescence, replicate 2": 82150}

The list itself, from the first entry:
{"Gene": "Xbp1", "amplicon": "DRSC04553", "raw ATP luminescence, replicate 1": 2.06e5, "raw ATP luminescence, replicate 2": 2.23e5}
{"Gene": "bumpel", "amplicon": "DRSC16100", "raw ATP luminescence, replicate 1": 55180, "raw ATP luminescence, replicate 2": 58330}
{"Gene": "CG17283", "amplicon": "DRSC15219", "raw ATP luminescence, replicate 1": 59360, "raw ATP luminescence, replicate 2": 82150}
{"Gene": "CG11585", "amplicon": "DRSC19410", "raw ATP luminescence, replicate 1": 4.16e5, "raw ATP luminescence, replicate 2": 3.72e5}
{"Gene": "ATPsynD", "amplicon": "DRSC14093", "raw ATP luminescence, replicate 1": 43120, "raw ATP luminescence, replicate 2": 65460}
{"Gene": "CG7560", "amplicon": "DRSC10879", "raw ATP luminescence, replicate 1": 56220, "raw ATP luminescence, replicate 2": 70053}
{"Gene": "CG8541", "amplicon": "DRSC10989", "raw ATP luminescence, replicate 1": 88563, "raw ATP luminescence, replicate 2": 79097}
{"Gene": "Cdc27", "amplicon": "DRSC11112", "raw ATP luminescence, replicate 1": 36123, "raw ATP luminescence, replicate 2": 33290}
{"Gene": "ND-SGDH", "amplicon": "DRSC11102", "raw ATP luminescence, replicate 1": 55213, "raw ATP luminescence, replicate 2": 58273}
{"Gene": "Pcl", "amplicon": "DRSC07503", "raw ATP luminescence, replicate 1": 66807, "raw ATP luminescence, replicate 2": 57350}
{"Gene": "Saysd1", "amplicon": "DRSC14664", "raw ATP luminescence, replicate 1": 75180, "raw ATP luminescence, replicate 2": 82950}
{"Gene": "tn", "amplicon": "DRSC05768", "raw ATP luminescence, replicate 1": 1.80e5, "raw ATP luminescence, replicate 2": 1.35e5}
{"Gene": "tn", "amplicon": "DRSC06532", "raw ATP luminescence, replicate 1": 60837, "raw ATP luminescence, replicate 2": 67517}
{"Gene": "CG34334", "amplicon": "DRSC20643", "raw ATP luminescence, replicate 1": 3.50e5, "raw ATP luminescence, replicate 2": 4.03e5}
{"Gene": "CG33090", "amplicon": "DRSC01908", "raw ATP luminescence, replicate 1": 81570, "raw ATP luminescence, replicate 2": 73913}
{"Gene": "CG2772", "amplicon": "DRSC00530", "raw ATP luminescence, replicate 1": 26167, "raw ATP luminescence, replicate 2": 35657}
{"Gene": "Adss", "amplicon": "DRSC14162", "raw ATP luminescence, replicate 1": 40153, "raw ATP luminescence, replicate 2": 31110}
{"Gene": "CG10383", "amplicon": "DRSC02050", "raw ATP luminescence, replicate 1": 79047, "raw ATP luminescence, replicate 2": 56623}
{"Gene": "dysc", "amplicon": "DRSC10273", "raw ATP luminescence, replicate 1": 58493, "raw ATP luminescence, replicate 2": 56980}
{"Gene": "dysc", "amplicon": "DRSC11040", "raw ATP luminescence, replicate 1": 64933, "raw ATP luminescence, replicate 2": 50743}
{"Gene": "clumsy", "amplicon": "DRSC03111", "raw ATP luminescence, replicate 1": 63333, "raw ATP luminescence, replicate 2": 60057}
{"Gene": "CG1701", "amplicon": "DRSC06641", "raw ATP luminescence, replicate 1": 43527, "raw ATP luminescence, replicate 2": 84370}
{"Gene": "Su(P)", "amplicon": "DRSC11291", "raw ATP luminescence, replicate 1": 60077, "raw ATP luminescence, replicate 2": 59057}
{"Gene": "TwdlR", "amplicon": "DRSC14736", "raw ATP luminescence, replicate 1": 38130, "raw ATP luminescence, replicate 2": 56830}
{"Gene": "CG14034", "amplicon": "DRSC02359", "raw ATP luminescence, replicate 1": 27737, "raw ATP luminescence, replicate 2": 32813}
{"Gene": "Hs2st", "amplicon": "DRSC03348", "raw ATP luminescence, replicate 1": 85083, "raw ATP luminescence, replicate 2": 51347}
{"Gene": "CG3611", "amplicon": "DRSC04395", "raw ATP luminescence, replicate 1": 37790, "raw ATP luminescence, replicate 2": 59593}
{"Gene": "meigo", "amplicon": "DRSC15877", "raw ATP luminescence, replicate 1": 46410, "raw ATP luminescence, replicate 2": 57980}
